Reference: article PMC2707011
Results are given in words; binding and its absence hold for the method and conditions named. Some binding calls cover weakened binding; strength is not graded here.

Chains of the proteins cited; added tags and fusions are not shown. Residues count along the entry.
UniProt O00602, residues 30-326: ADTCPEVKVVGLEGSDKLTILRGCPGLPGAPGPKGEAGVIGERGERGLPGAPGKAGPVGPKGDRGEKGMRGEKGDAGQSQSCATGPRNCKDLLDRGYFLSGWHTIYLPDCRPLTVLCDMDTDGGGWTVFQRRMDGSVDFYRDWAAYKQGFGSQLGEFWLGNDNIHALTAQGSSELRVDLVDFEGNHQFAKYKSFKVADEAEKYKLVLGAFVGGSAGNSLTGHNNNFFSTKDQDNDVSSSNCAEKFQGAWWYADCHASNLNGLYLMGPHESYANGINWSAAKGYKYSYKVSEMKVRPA

T1: hTectonin (human) (UniProt Q7Z6L1)
T1 sequence: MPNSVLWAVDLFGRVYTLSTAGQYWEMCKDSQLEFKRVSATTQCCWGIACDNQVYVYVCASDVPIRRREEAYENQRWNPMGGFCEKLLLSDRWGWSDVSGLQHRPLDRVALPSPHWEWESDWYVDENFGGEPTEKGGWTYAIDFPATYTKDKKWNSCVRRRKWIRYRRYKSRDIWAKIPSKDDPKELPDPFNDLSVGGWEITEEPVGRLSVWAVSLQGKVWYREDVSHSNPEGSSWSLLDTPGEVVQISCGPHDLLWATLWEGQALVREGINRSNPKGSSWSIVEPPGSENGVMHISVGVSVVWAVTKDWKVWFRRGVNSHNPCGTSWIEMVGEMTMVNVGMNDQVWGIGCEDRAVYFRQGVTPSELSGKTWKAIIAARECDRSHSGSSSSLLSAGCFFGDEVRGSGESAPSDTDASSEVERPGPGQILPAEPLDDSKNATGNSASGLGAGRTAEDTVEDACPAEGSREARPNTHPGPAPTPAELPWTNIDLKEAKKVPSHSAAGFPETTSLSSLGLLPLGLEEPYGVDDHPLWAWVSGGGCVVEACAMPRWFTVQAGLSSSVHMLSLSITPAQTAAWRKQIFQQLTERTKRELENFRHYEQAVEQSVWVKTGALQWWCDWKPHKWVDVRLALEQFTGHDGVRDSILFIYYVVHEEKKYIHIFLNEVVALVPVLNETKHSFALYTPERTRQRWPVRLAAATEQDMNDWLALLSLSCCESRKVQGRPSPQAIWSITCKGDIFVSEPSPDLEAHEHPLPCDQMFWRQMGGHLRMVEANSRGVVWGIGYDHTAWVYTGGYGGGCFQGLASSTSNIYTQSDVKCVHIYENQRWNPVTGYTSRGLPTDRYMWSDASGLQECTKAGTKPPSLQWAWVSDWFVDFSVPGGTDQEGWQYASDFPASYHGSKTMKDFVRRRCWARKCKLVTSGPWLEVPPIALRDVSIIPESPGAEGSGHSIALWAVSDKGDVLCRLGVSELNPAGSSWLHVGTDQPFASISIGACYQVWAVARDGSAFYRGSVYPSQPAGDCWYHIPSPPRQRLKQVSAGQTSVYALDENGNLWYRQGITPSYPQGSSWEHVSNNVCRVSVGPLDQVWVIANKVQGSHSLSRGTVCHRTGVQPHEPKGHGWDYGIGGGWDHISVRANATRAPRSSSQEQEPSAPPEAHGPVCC

T2: hTectonin (human), Q7Z6L1
T2 chain: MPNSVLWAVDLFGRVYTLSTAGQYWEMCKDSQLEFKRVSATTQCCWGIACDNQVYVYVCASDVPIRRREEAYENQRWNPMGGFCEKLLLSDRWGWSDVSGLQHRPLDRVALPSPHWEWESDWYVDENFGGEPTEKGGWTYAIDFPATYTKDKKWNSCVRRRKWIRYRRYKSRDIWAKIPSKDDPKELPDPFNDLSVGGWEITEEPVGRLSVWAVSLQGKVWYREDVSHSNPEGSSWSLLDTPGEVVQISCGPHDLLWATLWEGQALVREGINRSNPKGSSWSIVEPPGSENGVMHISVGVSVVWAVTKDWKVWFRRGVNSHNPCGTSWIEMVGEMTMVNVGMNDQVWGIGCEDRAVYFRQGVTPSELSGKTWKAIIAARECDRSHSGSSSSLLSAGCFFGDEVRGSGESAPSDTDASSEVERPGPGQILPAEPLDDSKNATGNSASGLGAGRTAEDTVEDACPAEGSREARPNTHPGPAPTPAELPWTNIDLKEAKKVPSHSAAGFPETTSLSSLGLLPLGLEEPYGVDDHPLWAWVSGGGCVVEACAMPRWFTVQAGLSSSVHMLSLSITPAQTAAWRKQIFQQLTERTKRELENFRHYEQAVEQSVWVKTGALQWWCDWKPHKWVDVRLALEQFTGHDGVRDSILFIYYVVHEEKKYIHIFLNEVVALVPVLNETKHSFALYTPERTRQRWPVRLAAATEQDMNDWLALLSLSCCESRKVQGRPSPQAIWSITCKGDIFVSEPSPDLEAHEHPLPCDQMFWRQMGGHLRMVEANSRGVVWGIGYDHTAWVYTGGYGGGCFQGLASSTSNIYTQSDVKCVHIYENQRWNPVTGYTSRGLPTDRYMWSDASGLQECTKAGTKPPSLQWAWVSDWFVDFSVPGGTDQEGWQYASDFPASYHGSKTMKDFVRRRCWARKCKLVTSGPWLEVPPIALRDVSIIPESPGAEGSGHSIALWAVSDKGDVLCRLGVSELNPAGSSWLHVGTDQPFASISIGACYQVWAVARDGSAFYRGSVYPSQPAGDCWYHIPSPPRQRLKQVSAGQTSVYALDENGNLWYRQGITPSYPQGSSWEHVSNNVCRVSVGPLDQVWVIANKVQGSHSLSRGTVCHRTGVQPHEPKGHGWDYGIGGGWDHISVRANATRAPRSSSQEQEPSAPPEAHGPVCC


How the values were obtained:
hTectonin (human) = biological target: T1, hTectonin (human); assay: two-hybrid; S. cerevisiae AH109; bait fused to the Gal4 DNA-binding domain (pGBKT7), prey to the Gal4 activation domain (pGADT7-Rec); selection on SC-Trp-Leu, then growth on QDO agar at 30°C
[1] = biological target: T2, hTectonin (human), Q7Z6L1; assay: as above; settings: remark: other sources report otherwise

Row | Molecule | binding (hTectonin (human)) | binding [1]
1 | M-ficolin (from UniProt O00602 30-326) | binds | –
2 | hTectonin, Q7Z6L1 1-1165 (protein) MPNSVLWAVDLFGRVYTLSTAGQYWEMCKDSQLEFKRVSATTQCCWGIACDNQVYVYVCASDVPIRRREEAYENQRWNPMGGFCEKLLLSDRWGWSDVSGLQHRPLDRVALPSPHWEWESDWYVDENFGGEPTEKGGWTYAIDFPATYTKDKKWNSCVRRRKWIRYRRYKSRDIWAKIPSKDDPKELPDPFNDLSVGGWEITEEPVGRLSVWAVSLQGKVWYREDVSHSNPEGSSWSLLDTPGEVVQISCGPHDLLWATLWEGQALVREGINRSNPKGSSWSIVEPPGSENGVMHISVGVSVVWAVTKDWKVWFRRGVNSHNPCGTSWIEMVGEMTMVNVGMNDQVWGIGCEDRAVYFRQGVTPSELSGKTWKAIIAARECDRSHSGSSSSLLSAGCFFGDEVRGSGESAPSDTDASSEVERPGPGQILPAEPLDDSKNATGNSASGLGAGRTAEDTVEDACPAEGSREARPNTHPGPAPTPAELPWTNIDLKEAKKVPSHSAAGFPETTSLSSLGLLPLGLEEPYGVDDHPLWAWVSGGGCVVEACAMPRWFTVQAGLSSSVHMLSLSITPAQTAAWRKQIFQQLTERTKRELENFRHYEQAVEQSVWVKTGALQWWCDWKPHKWVDVRLALEQFTGHDGVRDSILFIYYVVHEEKKYIHIFLNEVVALVPVLNETKHSFALYTPERTRQRWPVRLAAATEQDMNDWLALLSLSCCESRKVQGRPSPQAIWSITCKGDIFVSEPSPDLEAHEHPLPCDQMFWRQMGGHLRMVEANSRGVVWGIGYDHTAWVYTGGYGGGCFQGLASSTSNIYTQSDVKCVHIYENQRWNPVTGYTSRGLPTDRYMWSDASGLQECTKAGTKPPSLQWAWVSDWFVDFSVPGGTDQEGWQYASDFPASYHGSKTMKDFVRRRCWARKCKLVTSGPWLEVPPIALRDVSIIPESPGAEGSGHSIALWAVSDKGDVLCRLGVSELNPAGSSWLHVGTDQPFASISIGACYQVWAVARDGSAFYRGSVYPSQPAGDCWYHIPSPPRQRLKQVSAGQTSVYALDENGNLWYRQGITPSYPQGSSWEHVSNNVCRVSVGPLDQVWVIANKVQGSHSLSRGTVCHRTGVQPHEPKGHGWDYGIGGGWDHISVRANATRAPRSSSQEQEPSAPPEAHGPVCC | – | binds
